Laboratory results reported in publication doi:10.1101/2024.11.01.621267.
Results are given in words; binding and its absence hold for the method and conditions named. In cells and extracts the contact can be indirect. Some entries that bind do so weakly or less than the wild type.

By UniProt entry, the sequences of proteins in these tests, tags left out.
UniProt P11940: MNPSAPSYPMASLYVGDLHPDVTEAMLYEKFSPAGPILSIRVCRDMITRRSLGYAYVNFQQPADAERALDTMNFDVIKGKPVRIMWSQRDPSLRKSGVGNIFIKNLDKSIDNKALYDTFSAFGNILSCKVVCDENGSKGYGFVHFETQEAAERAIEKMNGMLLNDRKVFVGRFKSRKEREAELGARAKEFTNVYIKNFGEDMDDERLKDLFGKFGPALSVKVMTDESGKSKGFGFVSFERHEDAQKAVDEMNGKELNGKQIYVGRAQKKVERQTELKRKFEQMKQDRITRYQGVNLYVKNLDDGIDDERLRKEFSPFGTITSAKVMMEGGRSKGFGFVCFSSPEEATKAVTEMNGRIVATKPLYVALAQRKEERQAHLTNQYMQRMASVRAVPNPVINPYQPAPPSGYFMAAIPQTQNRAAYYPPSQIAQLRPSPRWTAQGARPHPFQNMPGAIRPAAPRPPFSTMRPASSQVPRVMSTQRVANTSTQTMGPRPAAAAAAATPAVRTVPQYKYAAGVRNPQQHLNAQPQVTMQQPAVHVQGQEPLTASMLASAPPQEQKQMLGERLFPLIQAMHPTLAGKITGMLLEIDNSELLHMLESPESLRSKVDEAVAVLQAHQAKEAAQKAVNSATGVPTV

Assays:
Assay in all cases: co-IP; anti-FLAG M2 magnetic beads, extract of HEK293 cells transfected with FLAG-tagged constructs; 4°C 2 hours; 50 mM Tris, 75 mM NaCl, 0.05% NP-40; blot with anti-RACK1 or anti-PABP1
[1] = molecular target: FLAG-tagged LARP4-ΔRIR (human) (UniProt Q71RC2)
FLAG-LARP4-W22F (human) = FLAG-LARP4-W22F (human) (UniProt Q71RC2)
[2] = molecular target: FLAG-tagged LARP4-R1 (human) (UniProt Q71RC2)
[3] = molecular target: FLAG-tagged LARP4-WT (human) (UniProt Q71RC2)
FLAG-LARP4-W22A (human) = FLAG-LARP4-W22A (human) (UniProt Q71RC2)

binding [1]: binds
binding (FLAG-LARP4-W22F (human)): binds
binding [2]: binds
binding [3]: binds
binding (FLAG-LARP4-W22A (human)): binds
Substance: cytoplasmic poly(A)-binding protein (PABPC1/PABP), endogenous in HEK293 cells (from UniProt P11940 1-636)
